{"sequences": {"note": "The chains behind the UniProt entries cited, without tags or fusion partners. Where a name states a change or a piece, a line headed by the entry shows the natural chain unless it says otherwise.", "UniProt P18054": "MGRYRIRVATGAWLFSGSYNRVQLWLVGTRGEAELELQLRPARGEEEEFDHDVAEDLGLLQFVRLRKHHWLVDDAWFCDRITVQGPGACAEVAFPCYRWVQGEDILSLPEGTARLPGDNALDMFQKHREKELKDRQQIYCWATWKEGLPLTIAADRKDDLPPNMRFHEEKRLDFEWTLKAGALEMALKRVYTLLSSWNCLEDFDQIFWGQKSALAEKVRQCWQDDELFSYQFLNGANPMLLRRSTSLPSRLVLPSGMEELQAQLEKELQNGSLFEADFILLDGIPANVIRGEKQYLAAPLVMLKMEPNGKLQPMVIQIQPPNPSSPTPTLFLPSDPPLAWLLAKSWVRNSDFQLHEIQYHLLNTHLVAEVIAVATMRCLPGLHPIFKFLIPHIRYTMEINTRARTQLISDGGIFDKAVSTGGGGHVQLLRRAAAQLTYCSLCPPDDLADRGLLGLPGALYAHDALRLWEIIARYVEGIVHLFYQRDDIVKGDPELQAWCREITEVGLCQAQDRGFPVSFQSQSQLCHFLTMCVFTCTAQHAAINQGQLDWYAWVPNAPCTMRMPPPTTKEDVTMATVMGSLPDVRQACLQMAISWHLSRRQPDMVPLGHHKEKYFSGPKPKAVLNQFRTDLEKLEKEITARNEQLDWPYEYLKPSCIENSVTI"}, "source": "PubChem BioAssay AID1671190", "about": "(National Center for Advancing Translational Sciences (NCATS), 2021)", "note": "Where “and” joins values, the source holds several entries; their conditions need not be identical. Identical values can stand only once. Out of some 580,000 compounds screened, about 6,100 (1.1%) were called active. This list was built around the results that the source calls inconclusive (neither active nor inactive); the mix of calls is not that of the screen. The call rests on the fitted dose curve; in most records, active means well fitted inhibition curve with a large enough effect; inconclusive means small, poorly fitted or top-dose-only effect, or another doubt; inactive means no such curve, though single readings can be large or run the other way. Where the call is inconclusive, the potency comes from a doubtful curve fit. On the % scale 0 is the no-effect control and ±100 the full control effect; potency means the concentration at half of the fitted maximal effect."}
{"biological_target": "Polyunsaturated fatty acid lipoxygenase ALOX12 (Homo sapiens) (UniProt P18054)", "assay": "Primary qHTS assay for inhibitors of human arachidonate 12S-lipoxygenase (ALOX12): Round 2", "conditions": "purified 12hLO, xylenol orange hydroperoxide absorbance; activity change, negative = inhibition: at 108 µM (top of the series) unless noted", "method_in_brief": "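Purified human 12hLO at 150 nM in 25 mM Hepes, 0.01% Triton X-100, pH 7.0, preincubated 15 min at room temperature with compound. Reaction started with 40 uM arachidonic acid, 30 min at room temperature. Hydroperoxide measured by Fe-xylenol orange, 573/405 nm absorbance ratio.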"}
{"smiles": "Cc1nn(-c2ccccc2)c(Oc2ccc(F)cc2)c1/C=N/n1cnnc1", "Potency": "inconclusive: 56.2 µM [inhibitor, partial curve, poor fit]"}
{"smiles": "c1nc(SSc2ncnc3nc[nH]c23)c2[nH]cnc2n1", "Potency": "inconclusive: 8.91 µM [inhibitor, full curve, poor fit]"}
{"smiles": "O=C(O)c1cccc(OCc2nnnn2-c2ccccc2)c1", "activity change, negative = inhibition": "inactive: -5.44%"}
{"smiles": "Cc1cc2nc3n(c(=O)c2n1CC(=O)Nc1ccc(Cl)cc1F)CCCC3", "Potency": "active: 22.4 µM"}
{"smiles": "COc1ccc(Nc2cc(C(=O)NCCCN(C)Cc3ccccc3)c3ccccc3n2)c(OC)c1", "Potency": "inconclusive: 79.4 µM [inhibitor, partial curve, poor fit]"}
{"smiles": "CCOC(=O)c1cnc2c(cnn2CC)c1NN=C(C)C", "Potency": "inconclusive: 35.5 µM [inhibitor, single point] and inconclusive: 11.4 µM [inhibitor, partial curve]"}
{"smiles": "O=C(N1CCN(c2ccccc2)CC1)C1(S(=O)(=O)c2ccc(Cl)cc2)CC1", "Potency": "inconclusive: 100 µM [inhibitor, partial curve, poor fit]"}
{"smiles": "CS(=O)(=O)N1CC2(CCN(Cc3cccc(C(N)=O)c3)CC2)Cc2ccccc21", "Potency": "inconclusive: 70.8 µM [inhibitor, partial curve, poor fit]"}
{"smiles": "O=C(Nc1cccc(C(F)(F)F)c1)N1CCC(CN2CCCCCC2)CC1", "Potency": "inconclusive: 44.7 µM [inhibitor, partial curve, poor fit]"}
{"smiles": "O=C(c1ccc2c(c1)OCO2)N1CCC2(CC1)N=C(c1ccc(Br)cc1)NO2", "Potency": "inconclusive: 22.4 µM [inhibitor, full curve, poor fit]"}
{"smiles": "COc1ccc(-c2ccc(N3C(c4cc(OC)cc(OC)c4)=Cc4ccc(OC)cc4C3CC(C)=O)cc2)cc1", "note": "(stereo unspecified)", "Potency": "inconclusive: 31.6 µM [inhibitor, partial curve, poor fit]"}
{"smiles": "COc1ccccc1CNC(=O)Cc1cccc(C(F)(F)F)c1", "Potency": "inconclusive: 44.7 µM [inhibitor, single point]"}
{"smiles": "COCCCNc1cc(-c2ccsc2)nc2c(C)noc12", "Potency": "inconclusive: 31.6 µM [inhibitor, full curve, poor fit]"}
{"smiles": "CCOC(=O)c1c(CCl)nc2ccccc2c1C", "Potency": "inconclusive: 35.5 µM [inhibitor, full curve, poor fit]"}
{"smiles": "COc1cc(-c2nc3ccccn3c2Nc2ccccc2C)ccc1O", "Potency": "inconclusive: 112 µM [inhibitor, partial curve, poor fit]"}
{"smiles": "Cn1c(C(=O)N[C@@H]2COCC[C@H]2Oc2ccc(C#N)cc2)cc(=O)n(C)c1=O", "activity change, negative = inhibition": "inactive: 11.6%"}
